PubChem BioAssay AID652243, Drosophila RNAi Screening Center, 2013
The deposit covers about 24,000 reagents; this is a random part of those that have a named target and a result. In the full data, 246 (1%) got an active call. 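Plates not normalised; calls are printed but the firefly/Renilla ratio behind them is not deposited; fold cut for lowering reported inconsistently.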 Raw values are not corrected between plates. Not stated in the record: the amount of reagent.

Purpose: 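Knock-downs that decrease or increase androgen receptor reporter signal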 (primary screen)
Cell system: Drosophila S2R+ cells
Reagents: long dsRNA against Drosophila genes
Time to read-out: 72 h (48 h, then 24 h hormone)
Treatment: synthetic androgen R1881 at 10 nM for 24 h
Measured: 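Per-well raw luminescence of the androgen-driven firefly reporter and of the Renilla control, two replicates each, without normalisation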
Direction: firefly reporter light: higher = more light from androgen-responsive reporter; Renilla control light: higher = more constitutive control signal (cell number, transfection)
Rule for the call: 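Hit when the log firefly-to-Renilla ratio dropped or increased by a fixed fold versus the mean of GFP or LacZ controls across duplicate plates; lowering cut given as 1.5 and as 3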
Meaning of the calls: active = hit: reporter lowered or raised; inactive = no hit

gene | DRSC id | firefly reporter light, replicate 1 | firefly reporter light, replicate 2 | Renilla control light, replicate 1 | Renilla control light, replicate 2 | outcome
sei (seizure) | DRSC04713 | 5.55e5 | 8.05e5 | 8.27e5 | 1.06e6 | inactive
sei (seizure) | DRSC29359 | 4.56e5 | 4.86e5 | 1.29e6 | 1.29e6 | inactive
Or49b (Odorant receptor 49b) | DRSC07494 | 3.06e5 | 2.51e5 | 1.78e6 | 1.83e6 | inactive
slx1 (nuclease slx1) | DRSC12290 | 37049 | 76303 | 1.17e6 | 1.67e6 | inactive
Dredd (Death related ced-3/Nedd2-like caspase) | DRSC18461 | 51066 | 20585 | 4.34e5 | 2.93e5 | inactive
Vinc (Vinculin) | DRSC18728 | 86989 | 59903 | 5.07e5 | 4.07e5 | inactive
CG11286 | DRSC14293 | 31148 | 65023 | 1.04e6 | 1.27e6 | inactive
Nemp (Nuclear envelope integral membrane protein) | DRSC20206 | 64842 | 77511 | 8.23e5 | 6.49e5 | inactive
Nemp (Nuclear envelope integral membrane protein) | DRSC26963 | 3.97e5 | 3.86e5 | 6.47e5 | 5.35e5 | inactive
RhoGAP100F (Rho GTPase activating protein at 100F) | DRSC15409 | 66719 | 49933 | 4.74e5 | 4.25e5 | inactive
RhoGAP100F (Rho GTPase activating protein at 100F) | DRSC28096 | 3.03e5 | 3.07e5 | 9.69e5 | 1.52e6 | inactive
CG30345 | DRSC05144 | 2.00e5 | 2.23e5 | 3.46e5 | 3.52e5 | inactive
CG6607 | DRSC16073 | 1.56e5 | 1.57e5 | 2.15e6 | 2.29e6 | inactive
CG42583 | DRSC22937 | 4.92e5 | 6.69e5 | 1.19e6 | 1.73e6 | inactive
CG42583 | DRSC26327 | 4.78e5 | 4.72e5 | 8.02e5 | 8.61e5 | inactive
CG15155 | DRSC02456 | 2.24e5 | 4.62e5 | 1.62e6 | 2.47e6 | inactive
CG31678 | DRSC02618 | 4.67e5 | 1.05e6 | 1.19e6 | 2.18e6 | inactive
CG31678 | DRSC02619 | 80543 | 56959 | 8.84e5 | 9.89e5 | inactive
mfrn (mitoferrin) | DRSC15687 | 2.04e5 | 1.40e5 | 2.28e6 | 2.34e6 | inactive
CG13837 | DRSC14687 | 1.55e5 | 2.32e5 | 2.48e6 | 2.58e6 | inactive
CG14618 | DRSC20631 | 2.43e5 | 1.74e5 | 6.58e5 | 3.20e5 | inactive
Cds (CDP-diacylglycerol synthase) | DRSC10938 | 6.84e5 | 8.14e5 | 1.67e6 | 2.05e6 | inactive
CG3492 | DRSC04373 | 4.25e5 | 6.28e5 | 1.38e6 | 1.66e6 | inactive
CG8389 | DRSC07158 | 1.20e6 | 1.08e6 | 3.00e6 | 1.65e6 | inactive
CG8389 | DRSC22855 | 4.43e5 | 7.10e5 | 7.77e5 | 1.90e6 | inactive
CG8389 | DRSC28233 | 3.78e5 | 8.57e5 | 9.43e5 | 1.66e6 | inactive

4 of these entries, set out differently.
{"gene":"CG42583","DRSC id":"DRSC22937","firefly reporter light, replicate 1":4.92e5,"firefly reporter light, replicate 2":6.69e5,"Renilla control light, replicate 1":1.19e6,"Renilla control light, replicate 2":1.73e6,"outcome":"inactive"}
{"gene":"CG42583","DRSC id":"DRSC26327","firefly reporter light, replicate 1":4.78e5,"firefly reporter light, replicate 2":4.72e5,"Renilla control light, replicate 1":8.02e5,"Renilla control light, replicate 2":8.61e5,"outcome":"inactive"}
{"gene":"CG15155","DRSC id":"DRSC02456","firefly reporter light, replicate 1":2.24e5,"firefly reporter light, replicate 2":4.62e5,"Renilla control light, replicate 1":1.62e6,"Renilla control light, replicate 2":2.47e6,"outcome":"inactive"}
{"gene":"CG31678","DRSC id":"DRSC02618","firefly reporter light, replicate 1":4.67e5,"firefly reporter light, replicate 2":1.05e6,"Renilla control light, replicate 1":1.19e6,"Renilla control light, replicate 2":2.18e6,"outcome":"inactive"}
